# Data from article PMC6479716.
# No constants are given. Whether binding was seen depends on the method and setting. A result given as binding can be weak or reduced; the word gives no strength. Where a sequence is shown, tags or fusion partners need not be part of it.
# T1: AEDANS labelled untagged lettuce eIF4E deleted from its first 46 N-ter amino acids (lettuce (Lactuca sativa cultivar Salinas))
# T1 sequence (chain, AEDANS on cysteines (mean of 1.7 AEDANS moieties per molecule)): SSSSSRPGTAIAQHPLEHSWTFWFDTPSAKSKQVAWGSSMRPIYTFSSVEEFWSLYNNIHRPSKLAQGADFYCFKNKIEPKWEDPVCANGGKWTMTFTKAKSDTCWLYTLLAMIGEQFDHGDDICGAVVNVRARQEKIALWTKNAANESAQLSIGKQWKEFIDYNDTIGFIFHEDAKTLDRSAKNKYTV
# T2: N-ter hexahistidine tagged lettuce eIF4E (lettuce (Lactuca sativa cultivar Salinas))
# T2 sequence: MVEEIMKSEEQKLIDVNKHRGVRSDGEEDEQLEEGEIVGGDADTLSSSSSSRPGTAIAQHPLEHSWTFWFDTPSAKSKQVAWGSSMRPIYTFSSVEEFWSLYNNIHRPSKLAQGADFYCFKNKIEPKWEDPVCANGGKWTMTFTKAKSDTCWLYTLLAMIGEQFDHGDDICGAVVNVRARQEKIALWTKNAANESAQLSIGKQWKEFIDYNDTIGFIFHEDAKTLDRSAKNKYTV
# T3: untagged full length lettuce eIF4E (lettuce (Lactuca sativa cultivar Salinas))
# T3 sequence: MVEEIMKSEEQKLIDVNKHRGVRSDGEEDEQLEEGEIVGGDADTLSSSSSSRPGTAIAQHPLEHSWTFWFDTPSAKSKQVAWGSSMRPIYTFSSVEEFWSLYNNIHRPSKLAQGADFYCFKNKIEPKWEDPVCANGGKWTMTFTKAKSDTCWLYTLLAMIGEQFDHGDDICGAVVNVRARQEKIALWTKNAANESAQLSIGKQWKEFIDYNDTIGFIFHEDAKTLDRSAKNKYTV
# T4: untagged lettuce eIF4E deleted from its first 46 N-ter amino acid (lettuce (Lactuca sativa cultivar Salinas))
# T4 sequence: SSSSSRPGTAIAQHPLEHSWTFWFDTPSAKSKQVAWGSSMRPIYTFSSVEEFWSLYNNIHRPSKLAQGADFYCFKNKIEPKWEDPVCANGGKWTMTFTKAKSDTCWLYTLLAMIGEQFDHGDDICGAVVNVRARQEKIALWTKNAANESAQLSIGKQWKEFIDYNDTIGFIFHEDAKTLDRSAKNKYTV
# What was measured:
# [1] = target: T1, AEDANS labelled untagged lettuce eIF4E deleted from its first 46 N-ter amino acids (lettuce (Lactuca sativa cultivar Salinas)); test: other fluorescence titration; decrease of the steady state intrinsic tryptophan fluorescence of eIF4E on titration by VPg; 25 °C, 20 mM HEPES pH 7.5, 0.25 mM NaCl, 1 mM DTT; both purified
# [2] = target: T2, N-ter hexahistidine tagged lettuce eIF4E (lettuce (Lactuca sativa cultivar Salinas)); test: as above
# [3] = target: T3, untagged full length lettuce eIF4E (lettuce (Lactuca sativa cultivar Salinas)); test: as above
# [4] = target: T4, untagged lettuce eIF4E deleted from its first 46 N-ter amino acid (lettuce (Lactuca sativa cultivar Salinas)); test: as above
# [5] = target: N-ter hexahistidine tagged LMV VPg (Lettuce mosaic virus (isolate AF199)); test: SEC; Superose 12 HR 10/30, 20 mM HEPES/KOH, 0.4 M KCl, 1.4 mM 2-mercaptoethanol, 0.5 mL/min; monomers run alone (1 mL of 0.7-1 mg/mL); complex pre-formed from His6 eIF4E 0.7 mg/mL and an excess of His6 VPg 1.2 mg/mL; fractions analysed by SDS-PAGE; both purified
Molecule,binding [1],binding [2],binding [3],binding [4],binding [5]
LMV VPg as used in the intrinsic fluorescence titrations of Figure S3 (Lettuce mosaic virus (isolate AF199)),binds,binds,binds,binds,–
"N-ter hexahistidine tagged lettuce eIF4E (protein, UniProt A0A2J6L8Y7 1-235) MVEEIMKSEEQKLIDVNKHRGVRSDGEEDEQLEEGEIVGGDADTLSSSSSSRPGTAIAQHPLEHSWTFWFDTPSAKSKQVAWGSSMRPIYTFSSVEEFWSLYNNIHRPSKLAQGADFYCFKNKIEPKWEDPVCANGGKWTMTFTKAKSDTCWLYTLLAMIGEQFDHGDDICGAVVNVRARQEKIALWTKNAANESAQLSIGKQWKEFIDYNDTIGFIFHEDAKTLDRSAKNKYTV",–,–,–,–,binds
